Test results reported in PubChem BioAssay (NCATS).
The entries are a selection whose mix differs from that of the whole data set. Results filed as inconclusive are left out. Activity calls are given as the source filed them. The call rests on the fitted dose curve; in most records, active means well fitted cell-killing curve with a large enough effect; inconclusive means small, poorly fitted or top-dose-only effect; inactive means flat fitted curve, though single readings scatter.

Assays:
[1] = Quantitative highthroughput screen to assess conditional lethalithy of P12 Ichikawa cells grown in Human Plasma-Like Medium with dialyzed fetal bovine serum (HPLM+ds) (AID 1963879); settings: viability, ATP luminescence, 48 h
Summary of the method: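 Each medium arm—HPLM with 10% dialyzed FBS, or RPMI1640 with 5 mM glucose and 10% untreated or dialyzed FBS—was screened against an 11-point, 3-fold compound titration for 48 h at 37 °C, with CellTiter-Glo luminescence as endpoint.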

[2] = Quantitative highthroughput screen to assess conditional lethalithy of P12 Ichikawa cells grown in RPMI1640 with dialyzed fetal bovine serum (RPMI+ds) (AID 1963880); settings: P12-Ichikawa viability, ATP luminescence, 48 h
Source text: (§1) Assay Provider: Jason Cantor Ph.D.
(§2) Department of Biochemistry
(§3) University of Wisconsin-Madison, Madison, WI, USA
(§4) Chemical screening studies have identified drug sensitivities across hundreds of cancer cell lines but most putative therapeutics fail to translate. Discovery and development of drug candidates in models that more accurately reflect nutrient levels in human blood is a major challenge. Here we performed high-throughput screens in conventional versus Human Plasma-Like Medium (HPLM) to identify compounds that were "missed" when screening using the artificial culture condition. Sets of conditional anticancer compounds spanned phases of clinical development and included non-oncology drugs were assessed. […] We also traced conditional phenotypes for several chemotherapeutics to availability of HPLM-specific metabolites and confirmed others for compounds whose reported targets are encoded by nonessential genes. Our findings establish generalizable strategies for exploiting conditional lethality in HPLM to reveal therapeutic candidates and mechanisms of action in cancer cells. […]
(§5) 6; Detection; Luminescence, Viewlux PerkinElmer. […]
(§6) 6. The luminescence signal was measured using a ViewLux (PerkinElmer) multiplate reader with a 2 second exposure time per plate. […]

[3] = Quantitative highthroughput screen to assess conditional lethalithy of P12 Ichikawa cells grown in RPMI1640 with untreated serum (RPMI+s) (AID 1963881); settings: viability, ATP luminescence, 48 h
Source text: as §1, §2, §3, §4, §5, §6
Further: nearly all actives have a fitted effect of over 35% in size.
Potency means the concentration at half of the fitted maximal effect.

| Compound | Potency [1] | Potency [2] | Potency [3] |
| --- | --- | --- | --- |
| NCCCC(O)(P(=O)(O)O)P(=O)(O)O | active: 9.35 µM |  |  |
| CC(C)[N+]1(C)[C@@H]2CC[C@H]1CC(OC(=O)C(CO)c1ccccc1)C2 (some centres undefined) | active: 4.18 µM | active: 9.35 µM | active: 11.8 µM |
